System: K. pneumoniae
Assay: Metabolic assay, percent correct score versus algorithmically called MIC
Assay type: cell-based
Settings: more than 30 strains

With CO/N=C(\C(=O)N[C@@H]1C(=O)N2C(C(=O)O)=C(CSc3nc(=O)c(=O)[nH]n3C)CS[C@H]12)c1csc(N)n1 [CRO, Ceftriaxone] the “percent correct score, agreement with algorithmically called MIC” value was 100%.
Gentamycin was tested, and the “percent correct score, agreement with algorithmically called MIC” value was 83%.

Reference: US12203124B2, “Methods for improved rapid antimicrobial susceptibility testing” (priority 2016, dated 2025)
